Measurements as given in PubChem BioAssay AID248 (DTP/NCI, 2004).
The list does not hold the whole screen: it is rich in T/C values a quarter to a half above the control, in often repeated tests (any T/C) and in doses without a T/C. Further doses and runs are listed elsewhere. T/C is the treated group as % of the vehicle group. Some entries give survivors of the animals treated and no T/C: the source holds a T/C of zero for them, seemingly a mark for toxic or unscored doses. Some doses without a T/C left all or most animals alive at the check, yet need not have been tolerated: the source hardly ever lists a survival T/C far under the control, and the zero likely stands for such cases as well. Survivors were counted at the toxicity check, usually on the fifth day, unless a day is given; later deaths do not show. Schedules are NCI's codes, taken here to give the interval after Q, in days (D) or hours (H), and the number of doses after X. Some doses were run more than once; the values are given in rising order. Some schedules carry Z or #; the key to these is not given. Some structures stand for samples that the source files as different forms (salt, stereo form or complex); doses refer to the form tested. Where survival is the endpoint, this PubChem deposit counts one and a half times the control or more as active, and values a quarter to a half above the control carry no call in these data; other NCI protocols may use other cut-offs. Marks such as (2×) stand for listed records that agree. Some T/C values carry the count of animals alive at the toxicity check (mostly the fifth day); without a count, all were alive then.

Test system: L1210 leukemia ip in BDF1 mice, survival T/C
Assay: NCI In Vivo Anticancer Drug Screen. Data for tumor model L1210 Leukemia (intraperitoneal) in B6D2F1 (BDF1) mice
Settings: T/C endpoint: mean survival time, higher T/C = longer survival
[1] = dose: 200.0 mg/kg/injection, schedule: Q04DX003 (ip), vehicle: saline with Tween-80
[2] = dose: 400.0 mg/kg/injection, schedule: Q04DX003 (ip), vehicle: saline with Tween-80
[3] = dose: 400.0 mg/kg/injection, schedule: Q01DX001 (ip), vehicle: saline
[4] = dose: 400.0 mg/kg/injection, schedule: Q01DX001 (ip), vehicle: Klucel (hydroxypropylcellulose) (HPC)
[5] = dose: 200.0 mg/kg/injection, schedule: Q01DX001 (ip), vehicle: saline
[6] = dose: 400.0 mg/kg/injection, schedule: Q01DX001 (ip), vehicle: carboxymethylcellulose (CMC)

CC(C)=CCC1=C(O)c2ccccc2C(=O)C1=O
survivor count (dose: 1.0 mg/kg/injection, schedule: Q01DX Z (ip), vehicle: water): 6 of 6 | T/C (dose: 8.33 mg/kg/injection, schedule: Q#B X027 (ip), vehicle: water): 127 % of control | T/C (dose: 33.33 mg/kg/injection, schedule: Q#B X027 (ip), vehicle: water): 125 % of control | T/C (dose: 50.0 mg/kg/injection, schedule: Q01DX Z (ip), vehicle: water): 94 (2×), 100, 148 % of control | T/C (dose: 56.0 mg/kg/injection, schedule: Q01DX009 (ip), vehicle: other): 96, 98, 101, 107 % of control | survivor count (dose: 100.0 mg/kg/injection, schedule: Q01DX015 (ip), vehicle: water): 2 of 6 | T/C (dose: 100.0 mg/kg/injection, schedule: Q01DX Z (ip), vehicle: water): 94, 96 (2×), 137 % of control | T/C (dose: 100.0 mg/kg/injection, schedule: Q#B X027 (ip), vehicle: water): 133 % of control [5 of 6 alive] | survivor count (dose: 133.33 mg/kg/injection, schedule: Q#B X027 (ip), vehicle: water): 0 of 6 | survivor count (dose: 133.33 mg/kg/injection, schedule: Q#B X027 (sc), vehicle: water): 1 of 6 | survivor count (dose: 200.0 mg/kg/injection, schedule: Q01DX015 (ip), vehicle: water): 0 of 6 | survivor count (dose: 200.0 mg/kg/injection, schedule: Q#A X Z (ip), vehicle: water): 3 of 6 | survivor count (dose: 200.0 mg/kg/injection, schedule: Q#B X027 (oral), vehicle: water): 2 of 6 | survivor count (dose: 200.0 mg/kg/injection, schedule: Q#B X027 (sc), vehicle: water): 0 of 6 | survivor count (dose: 266.67 mg/kg/injection, schedule: Q#B X027 (oral), vehicle: water): 1 of 6 | survivor count (dose: 350.0 mg/kg/injection, schedule: Q01DX015 (ip), vehicle: water): 0 of 6 | survivor count (dose: 375.0 mg/kg/injection, schedule: Q#A X018 (oral), vehicle: other): 3 of 6 | survivor count (dose: 400.0 mg/kg/injection, schedule: Q01DX Z (ip), vehicle: water): 0 of 6 | survivor count (dose: 500.0 mg/kg/injection, schedule: Q#A X018 (oral), vehicle: other): 1 of 6 | survivor count (dose: 530.0 mg/kg/injection, schedule: Q01DX015 (ip), vehicle: water): 0 of 6 | survivor count (dose: 750.0 mg/kg/injection, schedule: Q#A X018 (oral), vehicle: other): 0 of 6 | survivor count (dose: 800.0 mg/kg/injection, schedule: Q01DX015 (ip), vehicle: water): 0 of 6

CC1CC(C)(C)N=C(C(C)C)O1 (stereo unspecified)
survivor count [1]: 6 of 6 | survivor count [2]: 3 of 6

OC(CCN1CCCCC1)(c1cccs1)C(O)(CCN1CCCCC1)c1cccs1 (stereo unspecified)
survivor count [3]: 0 of 6

NC(N)=N/N=C/c1cccc(O)c1
survivor count (dose: 250.0 mg/kg/injection, schedule: Q01DX Z (ip), vehicle: saline): 0 of 6

O=C(COc1ccc(Cl)c(Cl)c1)N(Cc1ccccc1)Cc1ccc[n+](Cc2ccc(S(=O)(=O)F)cc2)c1
survivor count [2]: 0 of 6

CC(C)CC(C)NCCOC(=O)c1ccc(N)cc1 (stereo unspecified)
survivor count (dose: 150.0 mg/kg/injection, schedule: Q01DX001 (ip), vehicle: carboxymethylcellulose (CMC)): 0 of 6 | survivor count (dose: 300.0 mg/kg/injection, schedule: Q01DX001 (ip), vehicle: carboxymethylcellulose (CMC)): 0 of 6

Cc1nc2nc(N)[nH]c(=O)c2[nH]c1=O
survivor count (dose: 400.0 mg/kg/injection, schedule: Q01DX009 (ip), vehicle: saline): 6 of 6

O=[As](O)(c1cccc(Cl)c1)C1CCCCC1O (stereo unspecified)
survivor count (dose: 100.0 mg/kg/injection, schedule: Q04DX003 (ip), vehicle: saline with Tween-80): 0 of 6 and 2 of 6 | survivor count [1]: 0 of 6 | survivor count [2]: 0 of 6

CCN(CC)CCC(CCN(CC)CC)(CNC(=O)CN(CC)CC)c1cccc2ccccc12
survivor count (dose: 100.0 mg/kg/injection, schedule: Q04DX003 (ip), vehicle: saline): 2 of 6 | survivor count (dose: 200.0 mg/kg/injection, schedule: Q04DX003 (ip), vehicle: saline): 0 of 6 | survivor count (dose: 400.0 mg/kg/injection, schedule: Q04DX003 (ip), vehicle: saline): 1 of 6

CCC[CH2][Sn]([CH2]C)([CH2]C)[CH2]C
survivor count (dose: 400.0 mg/kg/injection, schedule: Q04DX002 (ip), vehicle: saline): 0 of 3

NC(NCCN1CC1)(C(F)(F)F)C(F)(F)F
survivor count (dose: 80.0 mg/kg/injection, schedule: Q01DX001 (ip), vehicle: Klucel (hydroxypropylcellulose) (HPC)): 1 of 6 | survivor count (dose: 100.0 mg/kg/injection, schedule: Q01DX001 (ip), vehicle: Klucel (hydroxypropylcellulose) (HPC)): 1 of 6 | survivor count (dose: 200.0 mg/kg/injection, schedule: Q01DX001 (ip), vehicle: Klucel (hydroxypropylcellulose) (HPC)): 1 of 6 | survivor count [4]: 0 of 6

CC(=O)C1C(=O)OC(C)=C(C(=O)O)C1=O (stereo unspecified)
survivor count (dose: 200.0 mg/kg/injection, schedule: Q01DX009 (ip), vehicle: saline with Tween-80): 2 of 6 | survivor count [2]: 0 of 6

CC1(C)N=C(N)N=C(N)N1c1ccc(/C=C/C(=O)Nc2ccc(S(=O)(=O)F)cc2)cc1
survivor count (dose: 300.0 mg/kg/injection, schedule: Q01DX001 (ip), vehicle: Klucel (hydroxypropylcellulose) (HPC)): 6 of 6

COc1cc2c(cc1OC)C(C(C)C)NCC2O (stereo unspecified)
survivor count [3]: 2 of 6

NC(N)=NC(=O)COc1ccc(Cl)cc1Cl
survivor count (dose: 400.0 mg/kg/injection, schedule: Q04DX002 (ip), vehicle: saline + alcohol): 0 of 3

Nc1ccc(NS(=O)(=O)CS(=O)(=O)Nc2ccc(N)cc2)cc1
survivor count (dose: 80.0 mg/kg/injection, schedule: Q01DX001 (ip), vehicle: saline): 2 of 6 | survivor count (dose: 100.0 mg/kg/injection, schedule: Q01DX001 (ip), vehicle: saline): 0 of 4 | survivor count [5]: 0 of 4 | survivor count [3]: 0 of 4

CC(=O)Nc1cccc2nsnc12
survivor count (dose: 400.0 mg/kg/injection, schedule: Q04DX003 (ip), vehicle: Klucel (hydroxypropylcellulose) (HPC)): 1 of 6

CC1=C(O)C(=O)C=C2C1=CC=C1[C@@]2(C)CC[C@@]2(C)[C@@H]3C[C@](C)(C(=O)O)CC[C@]3(C)CC[C@]12C
survivor count (dose: 40.0 mg/kg/injection, schedule: Q01DX001 (ip), vehicle: carboxymethylcellulose (CMC)): 0 of 4 | survivor count (dose: 50.0 mg/kg/injection, schedule: Q01DX001 (ip), vehicle: carboxymethylcellulose (CMC)): 0 of 6 | survivor count (dose: 80.0 mg/kg/injection, schedule: Q01DX001 (ip), vehicle: carboxymethylcellulose (CMC)): 0 of 4 | survivor count (dose: 100.0 mg/kg/injection, schedule: Q01DX001 (ip), vehicle: carboxymethylcellulose (CMC)): 0 of 6 | survivor count (dose: 200.0 mg/kg/injection, schedule: Q01DX001 (ip), vehicle: carboxymethylcellulose (CMC)): 0 of 6 | survivor count [6]: 0 of 6

CCN(CC)C(=O)C1CCC(CCc2c[nH]c3ccccc23)NC1 (stereo unspecified)
survivor count [5]: 1 of 6 | survivor count [3]: 0 of 6

OC1C2CC3C1C3C2c1ccccc1 (stereo unspecified)
survivor count (dose: 400.0 mg/kg/injection, schedule: Q01DX009 (ip), vehicle: Klucel (hydroxypropylcellulose) (HPC)): 6 of 6

N#Cc1cccc(C(=O)Cl)c1
survivor count (dose: 200.0 mg/kg/injection, schedule: Q01DX009 (ip), vehicle: carboxymethylcellulose (CMC)): 3 of 3 | survivor count [6]: 0 of 3 and 3 of 6 | survivor count (dose: 400.0 mg/kg/injection, schedule: Q01DX009 (ip), vehicle: carboxymethylcellulose (CMC)): 1 of 3 | survivor count (dose: 400.0 mg/kg/injection, schedule: Q04DX002 (ip), vehicle: carboxymethylcellulose (CMC)): 3 of 3 and 6 of 6 | survivor count (dose: 400.0 mg/kg/injection, schedule: Q04DX003 (ip), vehicle: carboxymethylcellulose (CMC)): 6 of 6

Cc1ccc(C2C(C(=O)c3ccccc3)N2Cc2ccccc2)cc1 (stereo unspecified)
survivor count [4]: 0 of 6
